Test results from paper PMC10575737.

Sequences of proteins named here, by UniProt entry; tags and fusion partners are left off.
UniProt Q7KZI7: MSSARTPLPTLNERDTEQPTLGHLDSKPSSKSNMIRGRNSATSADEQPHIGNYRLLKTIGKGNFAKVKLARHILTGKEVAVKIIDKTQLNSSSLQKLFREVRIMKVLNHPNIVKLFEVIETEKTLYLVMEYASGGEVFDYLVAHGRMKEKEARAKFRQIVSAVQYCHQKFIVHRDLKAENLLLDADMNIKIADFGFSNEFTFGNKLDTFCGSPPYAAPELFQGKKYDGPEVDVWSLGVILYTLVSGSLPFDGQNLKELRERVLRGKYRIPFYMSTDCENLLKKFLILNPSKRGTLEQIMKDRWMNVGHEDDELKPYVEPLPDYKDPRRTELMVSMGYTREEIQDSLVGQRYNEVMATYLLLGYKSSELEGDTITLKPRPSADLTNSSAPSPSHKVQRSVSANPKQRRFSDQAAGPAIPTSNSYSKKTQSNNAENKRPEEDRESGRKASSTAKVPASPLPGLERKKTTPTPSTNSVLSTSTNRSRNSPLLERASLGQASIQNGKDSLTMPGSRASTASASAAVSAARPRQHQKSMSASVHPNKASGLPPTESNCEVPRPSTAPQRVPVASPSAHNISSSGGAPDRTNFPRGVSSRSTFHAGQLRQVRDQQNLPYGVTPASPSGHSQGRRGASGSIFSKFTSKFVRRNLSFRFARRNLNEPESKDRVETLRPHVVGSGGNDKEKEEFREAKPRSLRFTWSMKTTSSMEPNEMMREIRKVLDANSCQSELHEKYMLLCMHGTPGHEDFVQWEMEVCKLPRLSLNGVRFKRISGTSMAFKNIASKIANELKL
UniProt P27448: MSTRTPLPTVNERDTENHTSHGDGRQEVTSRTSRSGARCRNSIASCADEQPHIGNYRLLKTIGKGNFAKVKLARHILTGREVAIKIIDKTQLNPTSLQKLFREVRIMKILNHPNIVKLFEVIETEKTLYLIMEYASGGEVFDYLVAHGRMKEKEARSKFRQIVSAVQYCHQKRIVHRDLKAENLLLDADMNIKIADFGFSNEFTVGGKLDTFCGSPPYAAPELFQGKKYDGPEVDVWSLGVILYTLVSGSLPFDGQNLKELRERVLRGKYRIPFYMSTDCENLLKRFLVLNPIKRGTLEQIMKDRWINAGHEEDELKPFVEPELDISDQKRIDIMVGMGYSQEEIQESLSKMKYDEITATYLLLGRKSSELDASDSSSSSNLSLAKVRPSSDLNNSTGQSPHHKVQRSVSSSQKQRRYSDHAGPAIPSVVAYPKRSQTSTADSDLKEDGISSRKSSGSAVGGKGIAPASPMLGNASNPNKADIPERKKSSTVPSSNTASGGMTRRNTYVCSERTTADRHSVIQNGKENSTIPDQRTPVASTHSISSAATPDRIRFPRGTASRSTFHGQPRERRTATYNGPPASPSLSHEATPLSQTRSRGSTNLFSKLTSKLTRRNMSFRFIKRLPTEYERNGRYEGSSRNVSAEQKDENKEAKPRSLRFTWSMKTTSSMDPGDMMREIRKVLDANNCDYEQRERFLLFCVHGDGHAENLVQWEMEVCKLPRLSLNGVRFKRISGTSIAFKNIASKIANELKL
UniProt Q9P0L2: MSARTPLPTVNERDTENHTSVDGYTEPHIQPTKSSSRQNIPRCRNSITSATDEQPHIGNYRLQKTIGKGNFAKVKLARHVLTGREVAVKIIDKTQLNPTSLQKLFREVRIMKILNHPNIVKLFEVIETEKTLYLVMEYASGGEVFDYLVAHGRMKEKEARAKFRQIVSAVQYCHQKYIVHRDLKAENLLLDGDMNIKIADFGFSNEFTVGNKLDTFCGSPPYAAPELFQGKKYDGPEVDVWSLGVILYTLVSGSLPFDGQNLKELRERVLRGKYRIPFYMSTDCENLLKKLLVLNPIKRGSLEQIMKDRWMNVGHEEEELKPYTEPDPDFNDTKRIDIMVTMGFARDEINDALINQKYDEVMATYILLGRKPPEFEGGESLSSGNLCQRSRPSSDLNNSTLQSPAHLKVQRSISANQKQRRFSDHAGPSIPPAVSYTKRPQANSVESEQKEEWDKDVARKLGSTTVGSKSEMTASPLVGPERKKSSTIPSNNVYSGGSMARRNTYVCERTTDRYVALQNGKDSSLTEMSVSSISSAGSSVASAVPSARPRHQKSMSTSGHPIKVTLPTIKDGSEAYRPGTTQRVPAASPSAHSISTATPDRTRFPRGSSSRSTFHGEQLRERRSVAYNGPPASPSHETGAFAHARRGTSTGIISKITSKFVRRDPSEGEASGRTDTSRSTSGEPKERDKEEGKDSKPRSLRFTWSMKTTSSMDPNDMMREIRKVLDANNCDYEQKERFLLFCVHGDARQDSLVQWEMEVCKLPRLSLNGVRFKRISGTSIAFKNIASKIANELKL
UniProt Q07157: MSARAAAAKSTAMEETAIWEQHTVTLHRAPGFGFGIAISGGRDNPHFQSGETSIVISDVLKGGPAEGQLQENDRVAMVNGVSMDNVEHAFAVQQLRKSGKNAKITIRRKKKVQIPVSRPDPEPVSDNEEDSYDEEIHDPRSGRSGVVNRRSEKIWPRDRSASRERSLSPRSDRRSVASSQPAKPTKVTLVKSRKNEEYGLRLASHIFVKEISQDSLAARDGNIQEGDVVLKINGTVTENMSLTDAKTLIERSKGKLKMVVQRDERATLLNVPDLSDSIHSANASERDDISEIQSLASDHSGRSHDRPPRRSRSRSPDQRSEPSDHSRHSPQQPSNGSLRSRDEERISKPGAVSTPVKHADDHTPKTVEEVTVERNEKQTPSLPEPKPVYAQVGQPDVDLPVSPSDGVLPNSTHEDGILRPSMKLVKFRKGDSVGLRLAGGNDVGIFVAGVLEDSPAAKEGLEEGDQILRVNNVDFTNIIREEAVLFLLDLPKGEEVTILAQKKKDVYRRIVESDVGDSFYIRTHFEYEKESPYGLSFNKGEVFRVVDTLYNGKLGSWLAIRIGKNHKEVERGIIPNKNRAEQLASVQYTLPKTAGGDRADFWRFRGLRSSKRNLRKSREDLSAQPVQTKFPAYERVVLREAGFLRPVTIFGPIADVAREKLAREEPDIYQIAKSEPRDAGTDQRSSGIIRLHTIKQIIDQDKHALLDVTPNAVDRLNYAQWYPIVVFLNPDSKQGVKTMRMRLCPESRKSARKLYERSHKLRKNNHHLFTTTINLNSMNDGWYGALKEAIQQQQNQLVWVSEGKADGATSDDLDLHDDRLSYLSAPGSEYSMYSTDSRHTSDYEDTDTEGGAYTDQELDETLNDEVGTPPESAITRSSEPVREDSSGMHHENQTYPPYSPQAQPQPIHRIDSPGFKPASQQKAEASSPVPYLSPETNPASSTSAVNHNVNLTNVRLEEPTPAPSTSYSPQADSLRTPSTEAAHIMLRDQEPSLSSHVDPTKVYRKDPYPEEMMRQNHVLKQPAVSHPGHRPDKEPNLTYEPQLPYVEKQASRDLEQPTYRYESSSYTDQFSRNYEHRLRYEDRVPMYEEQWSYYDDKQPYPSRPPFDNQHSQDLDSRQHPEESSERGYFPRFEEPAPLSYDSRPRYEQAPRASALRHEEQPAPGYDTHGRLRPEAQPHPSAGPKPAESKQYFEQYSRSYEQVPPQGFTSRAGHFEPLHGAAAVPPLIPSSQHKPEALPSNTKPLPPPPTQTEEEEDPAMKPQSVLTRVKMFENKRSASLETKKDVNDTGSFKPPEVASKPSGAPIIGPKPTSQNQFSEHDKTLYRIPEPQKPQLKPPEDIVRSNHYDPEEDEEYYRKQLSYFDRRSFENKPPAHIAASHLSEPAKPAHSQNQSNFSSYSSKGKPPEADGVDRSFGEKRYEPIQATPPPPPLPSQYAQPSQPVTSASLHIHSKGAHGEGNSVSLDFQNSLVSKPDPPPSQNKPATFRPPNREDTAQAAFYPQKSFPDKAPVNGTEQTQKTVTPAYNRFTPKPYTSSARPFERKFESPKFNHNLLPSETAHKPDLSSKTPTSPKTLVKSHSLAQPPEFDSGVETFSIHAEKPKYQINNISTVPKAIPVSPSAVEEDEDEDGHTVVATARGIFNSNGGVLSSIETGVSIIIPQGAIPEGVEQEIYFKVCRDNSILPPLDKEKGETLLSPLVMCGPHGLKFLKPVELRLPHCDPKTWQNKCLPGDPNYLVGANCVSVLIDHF
UniProt P35222: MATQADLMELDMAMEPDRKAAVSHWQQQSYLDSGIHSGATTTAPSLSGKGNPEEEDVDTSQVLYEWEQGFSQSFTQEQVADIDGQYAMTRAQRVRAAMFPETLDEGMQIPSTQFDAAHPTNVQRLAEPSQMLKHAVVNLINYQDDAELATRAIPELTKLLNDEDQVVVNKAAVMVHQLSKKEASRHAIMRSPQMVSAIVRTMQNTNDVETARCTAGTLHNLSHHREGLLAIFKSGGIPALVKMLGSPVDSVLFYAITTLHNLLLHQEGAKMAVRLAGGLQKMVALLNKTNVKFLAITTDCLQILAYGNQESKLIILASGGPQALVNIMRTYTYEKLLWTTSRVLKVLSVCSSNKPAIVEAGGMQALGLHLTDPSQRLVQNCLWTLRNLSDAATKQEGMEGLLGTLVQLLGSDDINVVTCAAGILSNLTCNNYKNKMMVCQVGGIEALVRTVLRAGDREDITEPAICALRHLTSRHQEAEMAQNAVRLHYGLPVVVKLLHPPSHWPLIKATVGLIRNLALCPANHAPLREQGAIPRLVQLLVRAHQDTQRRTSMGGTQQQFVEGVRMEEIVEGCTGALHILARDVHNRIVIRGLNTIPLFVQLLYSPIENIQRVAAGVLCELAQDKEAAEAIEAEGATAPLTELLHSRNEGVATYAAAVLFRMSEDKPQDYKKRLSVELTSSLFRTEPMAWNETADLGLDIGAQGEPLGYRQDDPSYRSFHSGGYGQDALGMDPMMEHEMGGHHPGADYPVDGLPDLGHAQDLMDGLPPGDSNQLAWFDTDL
UniProt Q9UDY2: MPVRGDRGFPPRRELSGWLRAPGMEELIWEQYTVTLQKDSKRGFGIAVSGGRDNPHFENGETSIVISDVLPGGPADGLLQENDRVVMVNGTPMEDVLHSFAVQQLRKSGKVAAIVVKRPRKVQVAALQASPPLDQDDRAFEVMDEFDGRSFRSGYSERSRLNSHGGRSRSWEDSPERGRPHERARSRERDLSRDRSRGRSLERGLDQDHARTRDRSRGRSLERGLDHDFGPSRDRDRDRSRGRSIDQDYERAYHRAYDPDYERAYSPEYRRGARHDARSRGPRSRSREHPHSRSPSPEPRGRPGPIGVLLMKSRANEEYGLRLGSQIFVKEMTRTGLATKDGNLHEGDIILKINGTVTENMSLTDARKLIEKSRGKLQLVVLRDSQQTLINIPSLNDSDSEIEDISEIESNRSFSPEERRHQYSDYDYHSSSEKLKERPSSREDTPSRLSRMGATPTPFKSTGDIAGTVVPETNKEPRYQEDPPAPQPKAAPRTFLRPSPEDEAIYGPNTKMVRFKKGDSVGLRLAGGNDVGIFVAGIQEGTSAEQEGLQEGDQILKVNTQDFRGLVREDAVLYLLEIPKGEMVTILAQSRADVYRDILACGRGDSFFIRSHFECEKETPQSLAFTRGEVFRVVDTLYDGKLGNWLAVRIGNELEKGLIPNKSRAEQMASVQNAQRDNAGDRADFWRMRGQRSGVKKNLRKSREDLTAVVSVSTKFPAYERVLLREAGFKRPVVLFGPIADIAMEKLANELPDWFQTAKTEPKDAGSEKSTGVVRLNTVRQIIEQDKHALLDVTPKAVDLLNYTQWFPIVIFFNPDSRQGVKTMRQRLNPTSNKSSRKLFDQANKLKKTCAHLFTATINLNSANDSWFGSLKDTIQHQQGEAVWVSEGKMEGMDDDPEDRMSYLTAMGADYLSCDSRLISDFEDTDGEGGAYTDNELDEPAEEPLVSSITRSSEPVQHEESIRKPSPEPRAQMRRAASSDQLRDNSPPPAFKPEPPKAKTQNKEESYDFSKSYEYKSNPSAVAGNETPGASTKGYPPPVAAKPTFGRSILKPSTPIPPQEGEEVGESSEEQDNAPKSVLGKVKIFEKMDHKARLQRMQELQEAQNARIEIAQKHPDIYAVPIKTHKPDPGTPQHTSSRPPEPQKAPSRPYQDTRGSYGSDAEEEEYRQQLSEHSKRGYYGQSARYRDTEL

Biological target: T1, sterile 20-like kinase MST2 (UniProt Q13188)
T1 sequence: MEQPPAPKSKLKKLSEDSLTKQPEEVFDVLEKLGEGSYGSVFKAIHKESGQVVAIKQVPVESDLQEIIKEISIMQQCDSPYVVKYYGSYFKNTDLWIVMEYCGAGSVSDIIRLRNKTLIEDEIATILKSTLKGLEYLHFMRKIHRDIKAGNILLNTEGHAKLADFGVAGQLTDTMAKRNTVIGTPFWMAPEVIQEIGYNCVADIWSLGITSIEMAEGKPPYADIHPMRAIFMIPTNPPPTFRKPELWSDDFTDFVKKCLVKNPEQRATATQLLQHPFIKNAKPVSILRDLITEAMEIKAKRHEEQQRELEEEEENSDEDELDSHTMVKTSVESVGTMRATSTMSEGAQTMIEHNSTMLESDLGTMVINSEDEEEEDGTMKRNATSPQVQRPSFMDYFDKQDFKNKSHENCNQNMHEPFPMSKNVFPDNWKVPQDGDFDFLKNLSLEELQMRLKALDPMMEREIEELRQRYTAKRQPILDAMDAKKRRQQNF
Assay: affinity purification with mass spectrometry; MST2 coprecipitates from HepG2 cell lysates, DIA-MS; cells cultured under LCD or HCD conditions

Row | binding | Substance
1 | binds | microtubule affinity-regulating kinase 2 (from UniProt Q7KZI7 1-788) (enzyme)
2 | binds | microtubule affinity-regulating kinase 3 (from UniProt P27448 1-753) (enzyme)

Biological target: T2, NUMB1 (bait of the NUMB1 coprecipitates analysed by mass spectrometry) (UniProt P49757)
T2 sequence: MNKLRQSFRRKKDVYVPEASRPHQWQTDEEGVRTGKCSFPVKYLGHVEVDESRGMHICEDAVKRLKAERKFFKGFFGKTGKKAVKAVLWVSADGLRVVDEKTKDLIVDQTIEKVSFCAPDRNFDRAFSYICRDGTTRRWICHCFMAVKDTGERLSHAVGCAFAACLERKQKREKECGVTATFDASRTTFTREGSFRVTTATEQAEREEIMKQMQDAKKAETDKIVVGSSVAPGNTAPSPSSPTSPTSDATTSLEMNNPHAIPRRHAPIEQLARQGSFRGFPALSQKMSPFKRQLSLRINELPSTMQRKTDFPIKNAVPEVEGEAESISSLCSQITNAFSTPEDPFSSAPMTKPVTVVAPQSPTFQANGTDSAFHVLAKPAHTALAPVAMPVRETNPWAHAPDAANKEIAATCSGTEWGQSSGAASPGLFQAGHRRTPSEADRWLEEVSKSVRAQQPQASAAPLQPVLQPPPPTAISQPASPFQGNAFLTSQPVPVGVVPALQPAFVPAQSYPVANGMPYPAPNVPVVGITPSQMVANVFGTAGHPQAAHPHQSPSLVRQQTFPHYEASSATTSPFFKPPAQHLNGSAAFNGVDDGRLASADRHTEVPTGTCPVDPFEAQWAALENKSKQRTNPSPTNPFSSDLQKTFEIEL
Assay: affinity purification with mass spectrometry; NUMB1 coprecipitates analysed by mass spectrometry; cells not given

Row | binding | Substance
3 | binds | MARK1 (in NUMB1 coprecipitates) (from UniProt Q9P0L2 1-795) (enzyme)
4 | binds | MARK2 (in NUMB1 coprecipitates) (from UniProt Q7KZI7 1-788) (enzyme)
5 | binds | MARK3 (in NUMB1 coprecipitates) (from UniProt P27448 1-753) (enzyme)

Biological target: T3, NUMB (bait of the NUMB coprecipitates analysed by mass spectrometry) (UniProt P49757)
T3 sequence: T2 sequence
Assay: affinity purification with mass spectrometry; NUMB coprecipitates analysed by mass spectrometry; cells not given

Row | Substance | binding
6 | ZO-1 (from UniProt Q07157 1-1748) | binds
7 | β-catenin (from UniProt P35222 1-781) | binds

Further lines, results first:

Row | binding | Substance
8 | binds | ZO-2 (from UniProt Q9UDY2 1-1190)
9 | binds | α-catenin

These are yes or no findings as the source states them, for the method shown. Binding seen in cells or lysates may run through a third protein. A yes stands for co-enrichment or nearness to the bait. Other partners may have been found.
